From US20260234234A1
Results are given in words; binding and its absence hold for the method and conditions named. Some results given as binding are weak or reduced against the parent protein; the word gives no strength. Tags and fused reporters may be left off the sequences shown.

Target: T1, Avitag_c-MYC_His6-tagged hIL-33 (Ser112-Thr270), QB10975 (human)
T1 sequence: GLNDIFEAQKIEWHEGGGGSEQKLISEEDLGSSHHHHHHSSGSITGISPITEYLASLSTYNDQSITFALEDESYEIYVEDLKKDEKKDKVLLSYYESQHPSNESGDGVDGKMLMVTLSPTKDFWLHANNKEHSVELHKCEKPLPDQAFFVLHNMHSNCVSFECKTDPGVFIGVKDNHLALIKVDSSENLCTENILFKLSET
Assay: SPR

binding: binds
B1: anti-hIL-33 antibody QB11119 (antibody, human IgG1, kappa, L234A L235A, V domains shown)
VH: EVQLLESGGGLVQPGGSLRLSCAASGFTFYSSAMSWVRQTQGKGLEWVSTISSGGSNTYYPDSVKGRFTISRDNSKNTLYLQMNSLGAEDTAVYYCASAYYGRRYDAMDYWGQGTLVTVSS
VL: DVVMTQSPPSLPVTLGQSASISCKSSKSLLHSNANTYLYWFQQRPGQSPQLLIYRMSNLASGVPDRFSGSGSGTDFTLKISRVEAEDVGVYYCMQHLENPYTFGQGTKVEIKR
